Results are given in words; binding and its absence hold for the method and conditions named. Some binding calls cover weakened binding; strength is not graded here.
Molecular target: T1, AtMC1 (Arabidopsis thaliana metacaspase 1) (Arabidopsis thaliana) (UniProt Q7XJE6)
T1 sequence: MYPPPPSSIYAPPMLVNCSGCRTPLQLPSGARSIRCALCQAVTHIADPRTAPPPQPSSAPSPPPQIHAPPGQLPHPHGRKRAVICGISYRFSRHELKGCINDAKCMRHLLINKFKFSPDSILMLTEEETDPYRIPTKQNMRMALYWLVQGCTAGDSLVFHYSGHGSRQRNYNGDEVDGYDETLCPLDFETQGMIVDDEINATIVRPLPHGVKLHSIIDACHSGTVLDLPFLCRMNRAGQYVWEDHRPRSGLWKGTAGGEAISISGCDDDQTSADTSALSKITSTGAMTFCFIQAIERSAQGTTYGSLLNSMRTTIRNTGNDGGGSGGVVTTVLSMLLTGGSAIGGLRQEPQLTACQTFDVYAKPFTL
Test: two-hybrid; baits in pGBKT7 (pBD), preys in pGADT7 (pAD), co-transformed in pairs into yeast strain AH109; selected on SD/-Leu-Trp, then tested on SD/-Leu-Trp-His-Ade with X-α-Gal

B1: Arabidopsis lesion simulating disease 1 (LSD1) (protein, UniProt P94077 1-189)
chain: MKVADMQDQLVCHGCRNLLMYPRGASNVRCALCNTINMVPPPPPPHDMAHIICGGCRTMLMYTRGASSVRCSCCQTTNLVPAHSNQVAHAPSSQVAQINCGHCRTTLMYPYGASSVKCAVCQFVTNVNMSNGRVPLPTNRPNGTACPPSTSTSTPPSQTQTVVVENPMSVDESGKLVSNVVVGVTTDKK
binding: binds

Reference: publication PMC4882554
